Out of some 340,000 compounds screened, about 4,500 (1.3%) were called active. This list was built around the results that the source calls inconclusive (neither active nor inactive); the mix of calls is not that of the screen. Calls come from the whole dose curve; as a rule, active = well fitted inhibition curve with a large enough effect; inconclusive = small, poorly fitted or top-dose-only effect, or another doubt; inactive = no such curve, though single readings can be large or run the other way. A potency beside an inconclusive call is a rough fit, not a confirmed value.
target: DNA polymerase beta (Homo sapiens) (UniProt P06746); experiment: qHTS Assay for Inhibitors of DNA Polymerase Beta; conditions: Pol beta primer extension/strand displacement, fluorescence kinetic; activity change, negative = inhibition: at 114 µM (top of the series)
Procedure, shortened: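 Enzyme-only controls used 10 nM Pol beta; buffer lacking enzyme served as negative control. Compound preincubated 15 min, then 50 nM substrate added; 0 and 10 min reads at room temperature.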
% is set by controls: 0 for no effect and ±100 for the full control effect; potency is the fitted concentration of half-maximal effect.

| Structure (SMILES) | Potency | activity change, negative = inhibition |
| --- | --- | --- |
| O=C(CN1C(=O)c2ccccc2C1=O)NCC(=O)OCC(=O)c1ccc(Br)cc1 | inconclusive: 31.6 µM [inhibitor, single point] |  |
| O=C(COC(=O)C1CCN(S(=O)(=O)c2cccs2)CC1)c1cc2ccccc2o1 | inconclusive: 20 µM [inhibitor, full curve] |  |
| S=c1[nH]nc(-c2ccc(Cl)cc2)n1-c1ccc(Cl)cc1 | inactive |  |
| Cn1ccc2c(OCC(=O)NCc3ccccc3Cl)cccc2c1=O | inactive |  |
| CCc1ccc(CNC(=O)c2ccc3nc(C(C)C)oc3c2)cc1 | inactive |  |
| Cc1nn(S(=O)(=O)c2ccccc2)c(C)c1Sc1ccc([N+](=O)[O-])cc1 | inconclusive: 89.1 µM [inhibitor, single point] |  |
| Cc1nn(-c2nc(-c3ccc(F)cc3)cc(C(F)(F)F)n2)c(C)c1Cl | inconclusive: 89.1 µM [inhibitor, single point] |  |
| Cc1sc2nc(SC3CCOC3=O)n(Cc3ccccc3)c(=O)c2c1C (stereo not given) | inconclusive: 0.398 µM [inhibitor, full curve, poor fit] |  |
| O=C(O)C(CCCCNS(=O)(=O)c1ccc(F)cc1)NS(=O)(=O)c1ccc(F)cc1 (stereo not given) | inconclusive: 89.1 µM [inhibitor, single point] |  |
| O=C(COc1ccccc1Cl)Nc1ccc(Cl)c(-c2nc3ccccc3o2)c1 | inactive |  |
| O=C(O)c1ccc2nc(-c3cc4cc(F)ccc4oc3=O)[nH]c2c1 | active: 35.5 µM |  |
| Cc1cc(O)cc2c(=O)c3ccccc3sc12 | inconclusive: 63.1 µM [inhibitor, partial curve, poor fit] |  |
| COc1cc(NC(=O)C(CC(C)C)NS(=O)(=O)c2ccc3c(c2)oc(=O)n3C)c(C(=O)O)cc1OC (stereo not given) | inactive |  |
| COc1cccc(CC(=O)OCC(=O)N2CCN(c3ccc(F)cc3)CC2)c1 | inconclusive: 28.2 µM [inhibitor, single point] |  |
| CCOC(=O)c1cnc2c(ccc3ccccc32)c1Nc1cccc(C(F)(F)F)c1 | inactive |  |
| CCCC(=O)Nc1ccc2oc(-c3cccnc3)nc2c1 | inconclusive: 89.1 µM [inhibitor, single point] |  |
| NC(=S)N/N=C/c1ccccc1O | inactive |  |
| Cc1ccc(C(=O)NCC(c2ccc3c(c2)OCO3)N2CCN(C)CC2)cc1C (stereo not given) | inactive |  |
| O=C(COC(=O)c1ccc(S(=O)(=O)N2CCCC2)cc1)Nc1ccc(N2CCOCC2)cc1 | inconclusive: 79.4 µM [inhibitor, single point] |  |
| O=C(COC(=O)c1ccc([N+](=O)[O-])s1)NCc1ccc(F)cc1 | inconclusive: 3.55 µM [inhibitor, full curve] |  |
| COc1ccccc1N1CCN(C(=O)c2cn(C)c3ccc(S(=O)(=O)N(C)C4CCCCC4)cc3c2=O)CC1 | inactive |  |
| COc1cc(-c2cc(C(=O)Nc3ccc(O)cc3)c3ccccc3n2)cc(OC)c1OC | inconclusive: 79.4 µM [inhibitor, single point] |  |
| CCOc1ccc(NC(=O)c2cnn(-c3ccc(C)c(C)c3)c2C2CCN(C(=O)OC(C)(C)C)CC2)cc1 | inactive |  |

| Structure (SMILES) | Potency | activity change, negative = inhibition |
| --- | --- | --- |
| Cc1sc2nc(C3CC3)nc(N3CCN(C(=O)c4ccc(Cl)cc4)CC3)c2c1C | inactive |  |
| O=C(N/N=C/c1ccc([N+](=O)[O-])o1)c1ccccc1NS(=O)(=O)c1cccs1 | inconclusive: 31.6 µM [inhibitor, full curve] |  |
| O=c1cc(-c2ccccc2)[nH]c2ccc(F)cc12 | inactive |  |
| Cc1cc(Cl)cc(Cl)c1OCC(=O)NCc1ccco1 | active: 39.8 µM |  |
| CC(C)OCCOc1ccc2oc(-c3ccco3)cc(=O)c2c1 | inconclusive: 17.8 µM [inhibitor, full curve] |  |
| CCOc1ccc(CNC(=O)C2CCN(S(=O)(=O)c3cn(C)cn3)CC2)cc1 | inactive |  |
| Cc1ccc(-c2cc(C(=O)Nc3nccs3)c3ccccc3n2)o1 | active: 25.1 µM |  |
| NC(=O)c1ccsc1NC(=O)COC(=O)/C=C/c1ccc([N+](=O)[O-])cc1 | inconclusive: 11.2 µM [inhibitor, full curve, poor fit] |  |
| O=C(CN1CCN(c2ccc(F)cc2)CC1)N1CCC(Cc2ccccc2)CC1 | inactive |  |
| Cc1nn(CCCC(=O)NCCc2ccc(Cl)cc2)c(=O)c2c1sc1ccccc12 | inconclusive: 89.1 µM [inhibitor, single point] |  |
| Cc1ccc(C(=O)NCC(=O)OCC(=O)c2c(N)n(C)c(=O)n(C)c2=O)s1 | active: 35.5 µM |  |
| N#Cc1c(NC(=O)c2ccccc2Cl)n(Cc2ccccc2)c2nc3ccccc3nc12 | active: 70.8 µM |  |
| C/C(CCC(C)C)=N\NC(=S)NCc1ccccc1 | inconclusive: 0.141 µM [inhibitor, full curve, poor fit] |  |
| CC[n+]1c(/C=C(\C)SC)sc2ccccc21 | inconclusive: 5.01 µM [inhibitor, full curve, poor fit] |  |
| O=C(O)c1ccc(S(=O)(=O)c2ccc3c(c2)C(=O)N(NC(=O)c2ccccc2)C3=O)cc1 | inconclusive: 17.8 µM [inhibitor, single point] |  |
| N#CC(C(=O)OCc1ccccc1)c1nc2ccccc2nc1N1CCOCC1 (stereo not given) | inconclusive: 39.8 µM [inhibitor, single point] |  |
| Cc1ccccc1N(C)S(=O)(=O)c1nnc(NC(=O)c2ccccc2F)s1 | inconclusive: 1.12 µM [inhibitor, single point] |  |
| O=C1CCCN2N=C(SCC(=O)Nc3ccc(Cl)cc3)SC2=N1 | inconclusive: 44.7 µM [inhibitor, partial curve] |  |
| CC(=O)N(C(C)=O)c1nc(-c2ccccc2)cn1/N=C/c1ccccc1 |  | inconclusive: -44% [inhibitor] |
| COc1ccc(C(=O)N2CCCC(CNC(=O)c3ccccc3Cl)C2)o1 (stereo not given) |  | inconclusive: -38.1% [inhibitor] |
| COc1cccc(C(=O)N(Cc2cccnc2)c2nc3c(OC)ccc(C)c3s2)c1OC | inconclusive: 79.4 µM [inhibitor, single point] |  |
| Cc1c(CCOC(=O)c2cc([N+](=O)[O-])cc([N+](=O)[O-])c2)sc[n+]1CC(=O)c1ccc(Br)cc1 | inconclusive: 89.1 µM [inhibitor, single point] |  |

3 structures out of the list, sorted by molar mass, descending.

| Structure (SMILES) | Potency | activity change, negative = inhibition |
| --- | --- | --- |
| O=C(COC(=O)C1CCN(S(=O)(=O)c2cccs2)CC1)c1cc2ccccc2o1 | inconclusive: 20 µM [inhibitor, full curve] |  |
| O=C(COc1ccccc1Cl)Nc1ccc(Cl)c(-c2nc3ccccc3o2)c1 | inactive |  |
| Cn1ccc2c(OCC(=O)NCc3ccccc3Cl)cccc2c1=O | inactive |  |

Source: PubChem BioAssay AID485314 (National Center for Advancing Translational Sciences (NCATS), 2010)
